Data as given in PubChem BioAssay AID504804 (Drosophila RNAi Screening Center, 2011).
The deposit covers about 19,000 reagents; this is a random part of those that have a named target and a result. Over the whole deposit, 47 (0.25%) were called active. 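Signals are raw, not normalised; exact z-scores behind calls not deposited; actives needed confirmation, so some wells reaching 2 SD are inactive.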 Entries without a mark were called inactive. The numbers tell different reagents against one gene apart. Names joined by + are all predicted targets of the reagent.

Test: 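Fly genes whose loss lessens doxorubicin-driven cell death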 (primary screen)
Cell system: Drosophila Kc cells
Reagents: long dsRNA against Drosophila genes, 0.5 µg dsRNA per well
Time to read-out: 96 h (48 h knock-down, then 48 h drug)
Conditions: doxorubicin 5 µg/ml for 48 h, added 48 h after dsRNA
Measured: 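Luminescent ATP counts per replicate, not normalised, reflecting viable cells after 48 h dsRNA knock-down followed by 48 h of 5 µg/ml doxorubicin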
Direction: raw ATP luminescence: higher = more viable cells, protection from doxorubicin
Call rule: 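z-score of 2 or more over plate mean in both duplicates, retained only when retests and separate dsRNAs confirm the protection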

target gene,reagent no.,"raw ATP luminescence, replicate 1","raw ATP luminescence, replicate 2"
GstD1 (GeneID 41503),1,65380,52743
Ddx56 (GeneID 33118),1,2.99e5,2.94e5
RpL7-like + CG34164,1,68140,68097
RpL7-like + CG34164,2,69847,70073
CG15296 (GeneID 31986),1,3.53e5,3.21e5
CG14022 (GeneID 33763),1,22163,23613
blot (GeneID 39939),1,92983,91340
blot (GeneID 39939),2,32453,24073
niki (GeneID 42959),1,54960,55700
CG34171 (GeneID 5740474),1,1.80e5,1.86e5
atlas (GeneID 37689),1,32503,63380
Theg (GeneID 42585),1,43890,53110
CG17768 + LSm-4,1,35520,69103
CG13674 (GeneID 38921),1,54490,90057
CG15044 (GeneID 32834),1,2.73e5,2.50e5
CG17169 (GeneID 3354995),1,3.25e5,3.02e5
CG14374 (GeneID 50026),1,73680,80460
Pi4KIIIalpha (GeneID 31247),1,38880,47830
pad (GeneID 41981),1,1.14e5,96110
eIF2beta (GeneID 39433),1,66790,55690
CG8788 (GeneID 35932),1,54213,79183
CG14752 (GeneID 35840),1,37740,71177
GlyRS (GeneID 39644),1,37213,31620
spz6 (GeneID 37956),1,54897,68640
CG11598 (GeneID 41554),1,57817,58570
CG31802 (GeneID 318949),1,48393,60993
ohgt (GeneID 41230),1,48843,65947
CG9040 (GeneID 39546),1,39640,32737
FoxK (GeneID 39252),1,39730,34150
HLH4C (GeneID 31397),1,49530,48890
CG33116 (GeneID 326259),1,89517,82210
Nos (GeneID 34495),1,76287,44477
Syx17 (GeneID 38541),1,34620,43343
Rrp47 (GeneID 32558),1,3.16e5,2.56e5
tho2 (GeneID 326153),1,97263,79010
sala (GeneID 34570),1,28913,67880
CG13248 (GeneID 40254),1,77353,65127
Glut1 (GeneID 38109),1,96187,87953
Glut1 (GeneID 38109),2,68707,68530
mRpL10 (GeneID 33182),1,1.03e5,70380
kune (GeneID 35504),1,56140,46793
CG7857 (GeneID 39671),1,44703,29043
CG7879 (GeneID 38184),1,52263,54783
CG32262 (GeneID 38445),1,41167,37683
CG3618 (GeneID 40303),1,19387,14470
Tmf (GeneID 31629),1,43100,48100
CG33777 (GeneID 3772311),1,1.30e5,30280
CG13404 (GeneID 32382),1,3.86e5,3.04e5
CG14834 (GeneID 38814),1,63420,66777
alphaTub84D (GeneID 40904),1,57003,61267
CG17572 (GeneID 35182),1,61127,55267
Dek (GeneID 47906),1,63890,60223
CG42362 + CG42363,1,78133,68523
Or42b (GeneID 35516),1,46050,59080
Ufl1 (GeneID 40843),1,71520,22880
CG9822 (GeneID 37440),1,64840,50610
CG10738 (GeneID 39516),1,68197,71437

Laid out differently: 8 of the entries above
| target gene | reagent no. | raw ATP luminescence, replicate 1 | raw ATP luminescence, replicate 2 |
| --- | --- | --- | --- |
| CG7857 (GeneID 39671) | 1 | 44703 | 29043 |
| CG7879 (GeneID 38184) | 1 | 52263 | 54783 |
| CG32262 (GeneID 38445) | 1 | 41167 | 37683 |
| CG3618 (GeneID 40303) | 1 | 19387 | 14470 |
| Tmf (GeneID 31629) | 1 | 43100 | 48100 |
| CG33777 (GeneID 3772311) | 1 | 1.30e5 | 30280 |
| CG13404 (GeneID 32382) | 1 | 3.86e5 | 3.04e5 |
| CG14834 (GeneID 38814) | 1 | 63420 | 66777 |
